{
  "source": "patent US9145382B2",
  "about": "“Organic compound and electrochromic device using the same” (CANON KABUSHIKI KAISHA, priority 2014, dated 2015)",
  "assay": "Durable stability against oxidation-reduction cycle (square-wave potential program, CV oxidation peak current)",
  "format": "physicochemical",
  "settings": "after 10000 times of the oxidation-reduction cycles",
  "protocol": "The durable stability against the oxidation-reduction cycle of the organic EC compound according to the present invention was evaluated. Specifically, the durability against repetition of an oxidation-reduction was evaluated using the illustrated compound A-1, the illustrated compound A-3 and Ref-1 as evaluation targets.\nThe measurement of durability against repetition of an oxidation-reduction was performed using a solution prepared by dissolving each compound in a predetermined solvent as a target sample, using a measuring apparatus provided with a work electrode, a counter electrode and a reference electrode. Here, the electrodes provided in the measuring apparatus and the solvent used will be shown below.\nWork electrode: Glassy carbon\nCounter electrode: Platinum\nReference electrode: Silver\nSupporting electrolyte (solvent): Solution of tetrabutylammonium perchlorate in dichloroethane (0.1 mol/L)\nSolution concentration: 1.0×10^−4 mol/L […]\nThe durability against repetition of an oxidation-reduction was evaluated based on the change in the amount of oxidation peak current in cyclic voltammetry (CV) measurement before and after the oxidation-reduction cycles for 10000 times. Specifically, when the rate of change in the amount of oxidation peak current was less than 20%, the durability was evaluated as Good, and when the rate of change was 20% or more, the durability was evaluated as Poor.",
  "note": "Some entries share one result that the patent states for a list of compounds.",
  "data": [
    {"smiles": "COCCOCc1c(-c2c(OC)cccc2OC(C)C)sc(-c2c(OC)cccc2OC(C)C)c1COCCOC", "note": "[A-1]", "values": [
      {"measurement": "change in the amount of oxidation current", "value": "less than 20%"}
    ]}
  ]
}
